According to patent publication US20130045491A1, “METHODS FOR ACTIVATING T CELLS” (priority 2011, published 2013):
At least one structure is not confirmed: it was looked up by name or label, or the drawing left a doubt.

Experiments:
CCR6^+ TM cells = test: Effect of PI-3K/Akt inhibitors on cytokine production of IL-7-cultured CCR6+ memory T cells; assay type: cell-based, human
Procedure: Peripheral Blood Mononuclear Cells (PBMCs) from healthy individuals (New York Blood Center, New York, N.Y.) were prepared using Ficoll-paque plus (GE Amersham, Uppsala, Sweden). Whole blood samples from rheumatoid arthritis patients were purchased from Bioreclamation (New York, N.Y.) and were processed similar to healthy donor blood. All healthy donor and patient samples were consented prior to purchase, were none-identifiable and approved by institutional human subjects board. CD4^+ T cells were isolated using Dynal CD4 Positive Isolation Kit (Invitrogen, Carlsbad, Calif.) directly from purified PBMCs and were >99% pure. CD4^+ T cells were sorted by FACS ARIA cell sorter (BD, San Jose, Calif.) into CD45RO^+ CD25^− memory T (TM) cells. TM cells were activated either by anti-CD3 and anti-CD28 (aCD3/aCD28) coated beads (1:4 beads:cells ratio) for 18-24 hours, or by Phorbol 12-myristate 13-acetate (PMA) and ionomycin for 4 hours and further FACS sorted based on CCR6 and IL-17 expression into CCR6^−IL-17^−, CCR6^+IL-17^+, or CCR6^+ IL-17^− subsets (as determined by secretion assay labeling, see below). Sorted cells (>99% pure) were cultured in serum-free Xvivo-15 medium (Lonza, Wakersville, Md.) at 37° C. and 5% CO2 for 6-7 days prior to restimulation with PMA and ionomycin (see below). […] To determine the fold expansion, CCR6^+IL-17^+ or CCR6^+IL-17^− subsets were labeled with CFSE (Molecular Probes, Eugene, Oreg.) or eFluor 670 (eBioscience, San Diego, Calif.), respectively, as previously described (Oswald-Richter, et al., PLoS Biol 2004; 2: E198). […] In the experiments using PI-3K signaling inhibitors, cells were treated with PI-3K specific inhibitor, LY294002 (EMD, Gibbstown, N.J.), or Akt specific inhibitor, AKTi-1/2 (EMD), for 2 days before PMA and Ionomycin restimulation.

Akt = test: Cytokine-dependent Akt phosphorylation in memory T cells treated with inhibitors; assay type: cell-based, human; details: 1-10 μg/mL inhibitor, 48 hours
Procedure: Peripheral Blood Mononuclear Cells (PBMCs) from healthy individuals (New York Blood Center, New York, N.Y.) were prepared using Ficoll-paque plus (GE Amersham, Uppsala, Sweden). Whole blood samples from rheumatoid arthritis patients were purchased from Bioreclamation (New York, N.Y.) and were processed similar to healthy donor blood. All healthy donor and patient samples were consented prior to purchase, were none-identifiable and approved by institutional human subjects board. CD4^+ T cells were isolated using Dynal CD4 Positive Isolation Kit (Invitrogen, Carlsbad, Calif.) directly from purified PBMCs and were >99% pure. CD4^+ T cells were sorted by FACS ARIA cell sorter (BD, San Jose, Calif.) into CD45RO^+ CD25^− memory T (TM) cells. TM cells were activated either by anti-CD3 and anti-CD28 (aCD3/aCD28) coated beads (1:4 beads:cells ratio) for 18-24 hours, or by Phorbol 12-myristate 13-acetate (PMA) and ionomycin for 4 hours and further FACS sorted based on CCR6 and IL-17 expression into CCR6^−IL-17^−, CCR6^+IL-17^+, or CCR6^+ IL-17^− subsets (as determined by secretion assay labeling, see below). Sorted cells (>99% pure) were cultured in serum-free Xvivo-15 medium (Lonza, Wakersville, Md.) at 37° C. and 5% CO2 for 6-7 days prior to restimulation with PMA and ionomycin (see below). […]

[1] = one week in IL-7, then inhibitor for 48 hours, restimulation

## O=c1cc(N2CCOCC2)oc2c(-c3ccccc3)cccc12 [LY294002]
CCR6^+ TM cells; [1]
  expression of IFNγ: not affected
  γc-mediated IL-17/IL-22 induction: repressed γc-mediated IL-17/IL-22 induction in a dose-dependent manner
CCR6^+ TM cells; removal of inhibitor from culture medium, unpublished data
  reversibility of inhibition of IL-17 and IL-22 expression: completely reversible
Akt
  cytokine-dependent phosphorylation of Akt: downregulated cytokine-dependent phosphorylation of Akt
